Data: paper PMC5865211, “The orphan GPR50 receptor promotes constitutive TGFβ receptor signaling and protects against cancer development” (Nature Communications, 2018)
Results are given in words; binding and its absence hold for the method and conditions named. Binding seen in cells or lysates may run through a third protein. These calls come from enrichment with a bait or labelling near it, and not all partners need be listed.

Protein sequences, listed by entry. Tags and fused reporters are not part of them. Lines headed by an entry give the natural chain unless they say otherwise; changes in a name come on top. Chains listed by the source or under a name are the forms on record and can include a tag or linker.
GPR50Δ4-TAP (Q13585, form named): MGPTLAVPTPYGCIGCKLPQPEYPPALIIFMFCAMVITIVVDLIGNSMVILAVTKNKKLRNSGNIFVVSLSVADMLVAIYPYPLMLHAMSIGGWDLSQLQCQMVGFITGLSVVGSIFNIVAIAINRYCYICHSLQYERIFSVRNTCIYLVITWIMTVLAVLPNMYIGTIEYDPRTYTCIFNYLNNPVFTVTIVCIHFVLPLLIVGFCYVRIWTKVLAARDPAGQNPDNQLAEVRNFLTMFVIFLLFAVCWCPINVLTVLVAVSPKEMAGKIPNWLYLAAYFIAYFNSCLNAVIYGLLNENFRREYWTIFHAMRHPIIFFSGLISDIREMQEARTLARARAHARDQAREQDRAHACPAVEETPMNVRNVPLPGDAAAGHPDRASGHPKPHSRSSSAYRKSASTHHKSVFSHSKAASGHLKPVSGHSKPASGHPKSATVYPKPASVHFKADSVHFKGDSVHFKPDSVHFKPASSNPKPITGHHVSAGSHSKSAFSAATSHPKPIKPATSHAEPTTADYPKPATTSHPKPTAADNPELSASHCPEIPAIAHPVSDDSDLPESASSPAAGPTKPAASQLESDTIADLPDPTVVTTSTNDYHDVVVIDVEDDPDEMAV

Molecular target: GPR50Δ4-TAP (human) (UniProt Q13585)
Assay: affinity purification with mass spectrometry; tandem affinity purification of GPR50Δ4-TAP from stably expressing HEK293T cells, naive HEK293T as control; on-bead trypsin digestion on calmodulin beads, nLC MS/MS

B1: type I TGFβ receptor (TβRI), endogenous human (receptor, UniProt P36897 34-503)
chain: LQCFCHLCTKDNFTCVTDGLCFVSVTETTDKVIHNSMCIAEIDLIPRDRPFVCAPSSKTGSVTTTYCCNQDHCNKIELPTTVKSSPGLGPVELAAVIAGPVCFVCISLMLMVYICHNRTVIHHRVPNEEDPSLDRPFISEGTTLKDLIYDMTTSGSGSGLPLLVQRTIARTIVLQESIGKGRFGEVWRGKWRGEEVAVKIFSSREERSWFREAEIYQTVMLRHENILGFIAADNKDNGTWTQLWLVSDYHEHGSLFDYLNRYTVTVEGMIKLALSTASGLAHLHMEIVGTQGKPAIAHRDLKSKNILVKKNGTCCIADLGLAVRHDSATDTIDIAPNHRVGTKRYMAPEVLDDSINMKHFESFKRADIYAMGLVFWEIARRCSIGGIHEDYQLPYYDLVPSDPSVEEMRKVVCEQKLRPNIPNRWQSCEALRVMAKIMRECWYANGAARLTALRIKKTLSQLSQQEGIKM
Question: With B1 as the binder, how does the binding read?
Answer: binds
